# The campaign covered roughly 390,000 compounds. About 760 (0.19%) were called active. The inconclusive results got no clear call from the source; some entries with a clear call stand among them for comparison. The call rests on the fitted dose curve; in most records, active means well fitted inhibition curve with a large enough effect; inconclusive means small, poorly fitted or top-dose-only effect; inactive means flat fitted curve, though single readings scatter. Potencies beside an inconclusive call are fits to weak or partial responses and may not hold up.
# Test: qHTS for Inhibitors of Vif-A3F Interactions: qHTS; further: nearly all actives have a fitted effect of over 65% in size; on activity, negative = active: % of control where 0% means no effect
# Conditions: HeLa A3F-eYFP + Vif (tagged APOBEC3F with the HIV-1 protein that degrades it), YFP fluorescence increase; series mostly up to 46.1 µM; activity, negative = active: at the top concentration
# Method in brief: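 Fluorescence increase (Ex 488/Em 500-530) after overnight compound treatment at 37 deg C flags inhibition of Vif-driven A3F-eYFP loss in stable HeLa A3F-eYFP/Vif cells seeded overnight beforehand.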
# Potency means the concentration at half of the fitted maximal effect.
Structure (SMILES),Potency,"activity, negative = active"
COc1ccc(C2c3ccc4ccccc4c3Oc3ncn(CCCN(C)C)c(=N)c32)cc1 (centres undefined),"inconclusive: 3.55 µM [inhibitor, single point]",
C[N+](C)(C)CCC(=O)N1C/C(=C/c2ccccc2)C(=O)/C(=C\c2ccccc2)C1,"inconclusive: 20 µM [inhibitor, partial curve, poor fit]",
Cc1cc(C(=O)COC(=O)c2ccc[nH]c2=O)c(C)n1-c1ccccc1F,,inactive: 7.74%
COc1cccc2c1cc1c(=O)n(CC(=O)N3CCN(c4cccc(C)c4C)CC3)nc(C)n12,"inconclusive: 2.82 µM [inhibitor, full curve, poor fit]",
CN(C)c1ccc(/C=C2/C[N+](C)(C)C/C(=C/c3ccc(N(C)C)cc3)C2=O)cc1,active: 10 µM,
Cc1c(C#N)c(NC(=O)CCl)n(Cc2cccs2)c1C,,inactive: -2.22%
CC1(C)CC(=O)C=C(C#CC2(O)CCCCC2)C1,,inactive: -7.13%
CN(C)CCNC(=O)c1sc2nc(-c3ccccc3)cc(C(F)(F)F)c2c1N,"inconclusive: 15.8 µM [inhibitor, partial curve, poor fit]",
Cc1ccccc1N1CCN(C(=O)c2cc(-c3ccccc3)nc3c2cnn3C(C)C)CC1,,inactive: 5.55%
COc1ccccc1Nc1nc(-c2c(C)[nH]c3ccccc23)cs1,"inconclusive: 11.2 µM [inhibitor, single point]",
Cc1onc(C(=O)Nc2sc3c(c2C(N)=O)CCCC3)c1[N+](=O)[O-],,inactive: -6.6%
COc1ccc2oc(=N)c(C(=O)Nc3ccc(F)cc3)cc2c1,"inconclusive: 2 µM [inhibitor, full curve, poor fit]",
Nc1ccccc1-c1nc2ccccc2[nH]c1=O,"inconclusive: 11.2 µM [inhibitor, partial curve, poor fit]",
CC(=O)N1CCN(CC(=O)Nc2ccc(C)c(S(=O)(=O)N(C)C)c2)CC1,"inconclusive: 5.01 µM [inhibitor, partial curve, poor fit]",
CCOC(=O)c1cc(C#N)c(SCC(=O)OC)[nH]c1=O,"inconclusive: 35.5 µM [inhibitor, single point]",
O=C(COC(=O)c1ccc(NS(=O)(=O)c2cccs2)cc1)Nc1nc2c(F)c(F)c(F)cc2s1,"inconclusive: 1.78 µM [inhibitor, partial curve, poor fit]",
O=C(NCc1ccccc1)c1cccnc1Sc1ccccc1,"inconclusive: 3.98 µM [inhibitor, full curve, poor fit]",
CCC1(CC)Cc2ccccc2-c2nc(NCCCO)[nH]c(=O)c21,"inconclusive: 35.5 µM [inhibitor, single point]",
CC(C)c1cccc(-c2ccc3c(c2)S(=O)(=O)c2cccc(C(=O)NCc4ccccc4)c2C3=O)c1,active: 10 µM,
O=C(O)C(c1ccccc1)N1C(=O)/C(=C\c2ccc(-c3ccccc3Cl)o2)SC1=S (centres undefined),"inconclusive: 35.5 µM [inhibitor, single point]",
CCCCN1C(=O)/C(=C/C=C2\SCCN2C)SC1=S,"inconclusive: 10 µM [inhibitor, partial curve, poor fit]",
Cc1cccc(N2C(=O)CC(N(O)c3ccccc3)C2=O)c1 (centres undefined),"inconclusive: 3.55 µM [inhibitor, single point]",

Structure (SMILES),Potency,"activity, negative = active"
CCN(CC)C(=O)C1CCCN(Cc2ccc3c(c2)OCO3)C1 (centres undefined),"inconclusive: 35.5 µM [inhibitor, single point]",
CCCC(=O)NC1=C(Cl)C(=O)c2ccccc2C1=O,"inconclusive: 2.82 µM [inhibitor, full curve, poor fit]",
CCOc1ccc(C(=O)N(c2ccccn2)C2CCCCC2)cc1,"inconclusive: 3.16 µM [inhibitor, single point]",
CN(C)S(=O)(=O)c1ccc(C(=O)Nc2nnc(SCc3cccc4ccccc34)s2)cc1,"inconclusive: 35.5 µM [inhibitor, single point]",
Cc1cccc(NC(=S)c2nc3ccccc3s2)c1,"inconclusive: 3.16 µM [inhibitor, single point]",
Cc1ccc(-n2c(-c3ccco3)nc3nc4ccccc4nc32)cc1F,"inconclusive: 22.4 µM [inhibitor, single point]",
O=C(c1cc(-c2cccnc2)nc2ccccc12)N1CCN(S(=O)(=O)c2cccs2)CC1,"inconclusive: 35.5 µM [inhibitor, single point]",
Cc1cccc(N2CCN(C(=O)c3ccc(Nc4nc5ccccc5n5nnnc45)cc3)CC2)c1C,"inconclusive: 22.4 µM [inhibitor, single point]",
O=C(CSc1nc(Nc2ccccc2)nc(N2CCOCC2)n1)Nc1ccc(Br)cc1F,,inactive: -10.4%
CCOC(=O)C1=C(O)/C(=C/c2cn(CC(=O)NCC3CCCO3)c3ccccc23)SC1=Nc1ccc(C)cc1 (centres undefined),"inconclusive: 7.08 µM [inhibitor, partial curve, poor fit]",
COc1ccccc1-c1sc2cc3c(cc2c1C#CC1(O)CCCCC1)OCO3,"inconclusive: 35.5 µM [inhibitor, single point]",
CCc1c(O)nc(SCC(=O)Nc2ccc(C)cc2)n(C2CCCCC2)c1=O,"inconclusive: 31.6 µM [inhibitor, single point]",
Cc1ccc(C(=O)/C=C\Nc2ccc(C)c(C)c2)cc1,"inconclusive: 0.562 µM [inhibitor, full curve, poor fit]",
O=c1cnn(-c2ccc(Cl)cc2Cl)c(-c2ccccc2)c1,"inconclusive: 10 µM [inhibitor, partial curve, poor fit]",
CCCn1c(SCC(=O)NCc2ccccc2)nnc1-c1ccncc1,,inactive: 1.53%
O=C(/C(=C/c1ccc(Cl)cc1)c1nc2ccccc2[nH]1)c1cccs1,,inactive: 3.96%
Cc1ccc(-c2nnc(Nc3ccccc3)c3ccccc23)cc1S(=O)(=O)NCC1CCCO1 (centres undefined),,inactive: 1.07%
O=C(O)CCNC1C=CS(=O)(=O)C1 (centres undefined),"inconclusive: 35.5 µM [inhibitor, single point]",
COc1ccc(OC)c(CNc2nc3ccc(C)cc3n3nnnc23)c1,"inconclusive: 1.26 µM [inhibitor, full curve, poor fit]",
Cc1ccc(Cn2c(SCC(=O)N(C)C3CCS(=O)(=O)C3)nc3ccccc3c2=O)cc1 (centres undefined),,inactive: 8.31%
COc1ccc2oc(=O)c(C(=O)N3CCN(c4ccc(C)cc4)CC3)cc2c1,"inconclusive: 22.4 µM [inhibitor, single point]",
CCC(=O)/C=C1/Sc2ccc(OC)cc2N1CCO,"inconclusive: 3.16 µM [inhibitor, single point]",

# Sorted by number of heavy atoms (ascending): 3 of the compounds above
Structure (SMILES),Potency,"activity, negative = active"
CCOc1ccc(C(=O)N(c2ccccn2)C2CCCCC2)cc1,"inconclusive: 3.16 µM [inhibitor, single point]",
COc1ccccc1-c1sc2cc3c(cc2c1C#CC1(O)CCCCC1)OCO3,"inconclusive: 35.5 µM [inhibitor, single point]",
O=C(CSc1nc(Nc2ccccc2)nc(N2CCOCC2)n1)Nc1ccc(Br)cc1F,,inactive: -10.4%

# Later entries:

Structure (SMILES),Potency,"activity, negative = active"
Cc1sc(NC(=O)c2cc(-c3ccc(Cl)cc3)nc3ccccc23)c(C(N)=O)c1C,"inconclusive: 11.2 µM [inhibitor, partial curve, poor fit]",
Cc1cccc(NC(=O)COC(=O)c2ccc(S(=O)(=O)N3CCCCCC3)cc2)c1,"inconclusive: 12.6 µM [inhibitor, partial curve, poor fit]",
COc1ccc(C(=O)c2sc3nc(-c4ccc(OC)cc4)ccc3c2N)cc1,"inconclusive: 35.5 µM [inhibitor, single point]",
O=C(O)CCCNc1cc(N2CCN(C(=O)c3ccco3)CC2)c2noc3c2c1C(=O)c1ccccc1-3,"inconclusive: 6.31 µM [inhibitor, single point]",
Clc1ccccc1Cn1c(/C=C/c2ccco2)nc2ccccc21,"inconclusive: 20 µM [inhibitor, partial curve, poor fit]",
C=CCc1cccc(/C=N/NC(=O)CNc2cccc3ccccc23)c1O,"inconclusive: 25.1 µM [inhibitor, single point]",
CN(CCO)c1cc(N2CCCCC2)c2nonc2c1[N+](=O)[O-],"inconclusive: 2 µM [inhibitor, partial curve, poor fit]",
CCOc1ccc2nc(/N=C/c3nc(-c4ccc(Br)cc4)oc3O)sc2c1,"inconclusive: 25.1 µM [inhibitor, single point]",
CCCCCc1cc(=O)oc2c(C(CCN3CCCC(C)C3)c3ccc4c(c3)OCO4)c(OC)cc(OC)c12 (centres undefined),,inactive: 0.377%
C/C(=N\NC(=O)CNC(=O)c1ccccc1F)c1ccco1,"inconclusive: 35.5 µM [inhibitor, single point]",
c1ccc(C(NCCNC(c2ccccc2)c2ccccc2)c2ccccc2)cc1,"inconclusive: 35.5 µM [inhibitor, single point]",
COc1cc(/C=C2\SC(=O)NC2=O)ccc1Oc1ccc([N+](=O)[O-])cc1[N+](=O)[O-],,inactive: -3.16%
CCOC(=O)c1cnc(-n2nc(C)cc2C)nc1NC1CCCCC1,"inconclusive: 3.16 µM [inhibitor, partial curve, poor fit]",
CC(=O)c1ccc(N2C(=O)C3C(C2=O)C(C(=O)c2ccc(Cl)cc2)N2CCCC32)cc1 (centres undefined),"inconclusive: 35.5 µM [inhibitor, single point]",
COC(=O)CSCc1nc2ccccc2[nH]c1=O,"inconclusive: 15.8 µM [inhibitor, single point]",
Cc1c(C(=O)/C=C/N(C)C)nnn1-c1ccc(Cl)cc1C#N,"inconclusive: 17.8 µM [inhibitor, single point]",
CC(=O)c1c(C)oc2c1cc(NS(=O)(=O)c1ccc(Cl)c(C)c1)c1ccccc12,,inactive: -2.31%
CC(C)(C)c1ccc(OCCNC(=S)Nc2ccccc2)cc1,,inactive: -10%
Cc1cc(/C=C(\C#N)C(=O)NC2CCCCCC2)c(C)[nH]1,"inconclusive: 35.5 µM [inhibitor, single point]",
COc1cccc(/C=N/Nc2cc(N3CCOCC3)ncn2)c1O,"inconclusive: 12.6 µM [inhibitor, partial curve, poor fit]",

# — PubChem BioAssay AID602313 (National Center for Advancing Translational Sciences (NCATS), 2012)
